# PubChem BioAssay AID652272 – Drosophila RNAi Screening Center, 2013
# Aim: 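Genes whose knock-down decreases or increases Hedgehog reporter output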 (primary screen)
# Cells: Drosophila clone 8 (Cl8) cells
# Reagent: long dsRNA against Drosophila genes
# Measurement: 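Plate reader light from a firefly reporter under a ptc promoter fragment that responds to Hedgehog, with Renilla light as transfection reference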
# Scale: firefly Hh reporter signal: higher = more ptc reporter light; Renilla reference signal: higher = more Renilla control light
# Call rule: 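Hit when the z-score averaged over two replicates is under -2 or over +3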
# Meaning of the calls: active = hit: reporter lowered or raised; inactive = not a hit
# The deposit covers about 21,000 reagents; shown is a random part of those with a known target gene and a result. Over the whole deposit, 503 (2.4%) were called active. 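Raw plate light values, not normalised; calls rest on replicate z-scores that were not deposited; hits include reporter decreases as well as increases.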 Names joined by + are all predicted targets of the reagent. No sequences are given here. Not stated in the record: the amount of reagent, the time to read-out.
gene,amplicon,"firefly Hh reporter signal, replicate 1","firefly Hh reporter signal, replicate 2","Renilla reference signal, replicate 1","Renilla reference signal, replicate 2",Outcome
Agpat2 (GeneID 34176),DRSC03532,75276,41649,3260,1137,inactive
ZIPIC (GeneID 43566),DRSC16349,94713,69856,2240,2016,inactive
vret (GeneID 42695),DRSC15640,1.14e5,95893,4886,4358,inactive
mnb (GeneID 32771),DRSC20058,64621,32019,4208,1506,active
mnb (GeneID 32771),DRSC20353,82716,2.59e5,2682,10457,inactive
Rrp6 (GeneID 41798),DRSC16223,87751,58228,5409,3255,active
rho-5 (GeneID 2768944),DRSC02847,1.42e5,91904,3835,7761,inactive
Nup37 (GeneID 43040),DRSC14419,5.72e5,1.07e5,33521,3081,inactive
CG13577 (GeneID 37885),DRSC04213,65637,39655,1728,3312,inactive
CG32032 (GeneID 192535),DRSC08961,98461,2.46e5,2779,8420,inactive
CG15773 (GeneID 31494),DRSC18079,1.03e5,3.01e5,3878,10452,inactive
CG7997 (GeneID 36829),DRSC07052,1.18e5,75030,5616,2873,inactive
CG15544 (GeneID 43655),DRSC15082,87274,1.60e5,1972,6524,inactive
Spn100A (GeneID 43642),DRSC14596,1.25e5,1.12e5,2854,3105,inactive
CG5181 (GeneID 34018),DRSC02825,70518,69005,3143,3444,inactive
Mal-A2 (GeneID 35825),DRSC07460,1.07e5,64194,2728,5836,inactive
CG33631 (GeneID 3771784),DRSC12763,1.97e5,,3569,,inactive
Rim2 (GeneID 33350),DRSC00073,7.37e5,3.58e5,38544,13689,inactive
Rim2 (GeneID 33350),DRSC00520,1.04e5,1.45e5,3659,5011,inactive
Lint-1 (GeneID 32055),DRSC19822,1.51e5,86251,3411,2016,inactive
mod(mdg4) + pre-mod(mdg4)-Z + pre-mod(mdg4)-T,DRSC13477,52375,1.59e5,10715,3963,inactive
mod(mdg4) + pre-mod(mdg4)-Z + pre-mod(mdg4)-T,DRSC17001,7.97e5,2.22e5,41274,6003,inactive
CG10055 (GeneID 40862),DRSC12503,68530,96208,2800,2748,inactive

In a second layout: results already given
gene	amplicon	firefly Hh reporter signal, replicate 1	firefly Hh reporter signal, replicate 2	Renilla reference signal, replicate 1	Renilla reference signal, replicate 2	Outcome
rho-5 (GeneID 2768944)	DRSC02847	1.42e5	91904	3835	7761	inactive
Nup37 (GeneID 43040)	DRSC14419	5.72e5	1.07e5	33521	3081	inactive
